In patent US20190100549A1, “FLAVONOIDE-TYPE COMPOUNDS BEARING AN O-RHAMNOSYL RESIDUE” (Universitaet Hamburg, priority 2016, published 2019):
At least one structure is not confirmed: it was looked up by name or label, or the drawing left a doubt.

Test system: HaCaT cells
Assay: Glucose uptake (2-NBDG) in HaCaT keratinocytes
Format: cell-based
Design: key to Measure 1 / Measure 2 / Measure 3 / Mean: total green object integrated intensity, GCU×μm2×Well
Details: 80 μM positive control, +2NBDG 50 μM, 24 h
Procedure: HaCaT cells (5×10^4) were seeded in 96-well black plates and incubated for 24 h. Then, medium was removed and the cells cultivated in OptiMEM, labeled with 50 μM 2-NBDG (2-[N-(7-nitrobenz-2-oxa-1,3-diazol-4-yl) amino]-2-deoxy-D-glucose and treated with the test substances or the positive control, Rosiglitazone, for 24 h. Medium was removed and the wells were carefully washed with PBS and incubated in PBS (100l/well). Finally the fluorescence was measured using the Incucyte FLR software, the data were analyzed by the total green object integrated intensity (GCU×μm2×Well) of the imaging system IncuCyte HD (Essen BioScience). The fluorescence of Rosiglitazone is taken as 100% of glucose uptake, and the glucose uptake was calculated as (% Glucose uptake)=100(T−B)/(R−B), where T (treated) is the fluorescence of test substance-treated cells, B (Basal) is the fluorescence of 2-NBDG cells and […] is the fluorescence of cells treated with Rosiglitazone.

SMILES: CN(CCOc1ccc(CC2SC(=O)NC2=O)cc1)c1ccccn1 (stereo not drawn) [Rosiglitazone, reference compound]
- Measure 1 (HaCaT cells, fluorescence): 776381
- Measure 2 (HaCaT cells, fluorescence): 707003
- Measure 3 (HaCaT cells, fluorescence): 1141924
- RFU specific (mean minus control): 868789 RFU
- Mean (mean of triplicate measurements): 875103
- % Glucose uptake (taken as 100% of glucose uptake): 100.0%
